Patent CN113061185A
Where a chain is given by its changes, count along the chain named. Results are given in words; binding and its absence hold for the method and conditions named. Some results given as binding are weak or reduced against the parent protein; the word gives no strength.

By UniProt entry, the sequences of proteins in these tests, tags left out.
UniProt Q02223: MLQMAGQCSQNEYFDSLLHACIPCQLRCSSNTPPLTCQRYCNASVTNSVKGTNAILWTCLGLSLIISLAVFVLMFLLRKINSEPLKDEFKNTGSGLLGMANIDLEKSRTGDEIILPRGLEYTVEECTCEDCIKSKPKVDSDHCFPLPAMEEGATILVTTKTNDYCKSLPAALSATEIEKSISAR

B1: B10.3 (affinity-matured mutant of B10) (scFv)
scFv: QVQLQQSGAEVKKPGSSVKVSCKASGGTFSKSAIQWVRQAPGQGLEWMGGVIPIFGTANYAQKFQGRVTITADESTSTAYMELSSLRSEDTAVYYCARGWYLDLWGRGTLVTVSSGGSSRSSSSGGGGSGGGGLPVLTQPPSASGTPGQRVTISCSGSSNNIGGYSVNWYQQFPGTAPKLLIYRNNQRPSGVPDRFSGSKSGASASLAISGLQSEDEADYYCAAWDDSVIGWLFGTGTQLTVL
B2: B10.4 (affinity-matured mutant of B10) (scFv)
scFv: B1 scFv with Q35M
B3: B10.5 (affinity-matured mutant of B10) (scFv)
scFv: B1 scFv with Q35H, N160S, E217V, V229L, W232Y, L233V
B4: B10.9 (affinity-matured mutant of B10) (scFv)
scFv: B1 scFv with V229E

Target: BCMA on the surface of BCMA-positive cell lines H929 (NCI-H929) and RPMI8226 (human) (UniProt Q02223)
Experiment: flow cytometry on H929 and RPMI8226 cells

| Binder | binding |
| --- | --- |
| B1 | binds |
| B2 | binds |
| B3 | binds |
| B4 | binds |
